In this assay the target is T1, TRAIP C-terminally tagged with streptavidin binding peptide-S peptide-Flag (SFB) (human) (UniProt Q9BWF2).
T1 sequence: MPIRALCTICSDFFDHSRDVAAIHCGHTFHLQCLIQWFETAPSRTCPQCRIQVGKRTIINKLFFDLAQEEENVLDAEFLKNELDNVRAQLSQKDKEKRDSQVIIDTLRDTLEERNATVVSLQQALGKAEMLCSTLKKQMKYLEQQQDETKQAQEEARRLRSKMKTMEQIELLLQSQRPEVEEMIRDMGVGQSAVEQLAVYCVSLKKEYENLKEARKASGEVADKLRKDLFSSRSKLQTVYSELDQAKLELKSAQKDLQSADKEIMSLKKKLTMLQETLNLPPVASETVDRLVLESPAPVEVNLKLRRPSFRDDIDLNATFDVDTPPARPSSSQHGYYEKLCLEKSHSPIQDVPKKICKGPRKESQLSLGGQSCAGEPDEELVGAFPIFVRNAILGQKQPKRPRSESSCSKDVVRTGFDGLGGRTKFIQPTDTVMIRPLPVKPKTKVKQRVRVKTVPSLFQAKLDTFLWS
Put plainly: affinity purification with mass spectrometry; tandem affinity purification of TRAIP-SFB from 293T cells treated with 5 mM HU for 4 h; NETN buffer; streptavidin sepharose then S protein agarose; LC/MS/MS.

Sequences of proteins named here, by UniProt entry; tags and fusion partners are left off.
UniProt P12004: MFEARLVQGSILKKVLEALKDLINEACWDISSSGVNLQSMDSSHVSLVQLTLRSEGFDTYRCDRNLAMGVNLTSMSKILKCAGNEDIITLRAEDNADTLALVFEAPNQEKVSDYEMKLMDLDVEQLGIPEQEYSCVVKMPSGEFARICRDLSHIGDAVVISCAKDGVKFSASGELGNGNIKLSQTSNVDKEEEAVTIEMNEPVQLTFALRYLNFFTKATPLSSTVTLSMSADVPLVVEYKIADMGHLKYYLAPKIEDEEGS

These are yes or no findings as the source states them, for the method shown. In cells and extracts the contact can be indirect. These calls come from enrichment with a bait or labelling near it, and not all partners need be listed. Where a sequence is shown, tags or fusion partners need not be part of it.

“proliferating cell nuclear antigen (PCNA), endogenous (from UniProt P12004 1-261)”: the binding entry is recorded as “binds”.
